Source: article PMC5991658
These are yes or no findings as the source states them, for the method shown.

Biological target: T1, ZIPT-7.1 lacking the last 21 C-terminal amino acids (split-ubiquitin bait) (C. elegans) (UniProt Q9XUC4)
T1 sequence: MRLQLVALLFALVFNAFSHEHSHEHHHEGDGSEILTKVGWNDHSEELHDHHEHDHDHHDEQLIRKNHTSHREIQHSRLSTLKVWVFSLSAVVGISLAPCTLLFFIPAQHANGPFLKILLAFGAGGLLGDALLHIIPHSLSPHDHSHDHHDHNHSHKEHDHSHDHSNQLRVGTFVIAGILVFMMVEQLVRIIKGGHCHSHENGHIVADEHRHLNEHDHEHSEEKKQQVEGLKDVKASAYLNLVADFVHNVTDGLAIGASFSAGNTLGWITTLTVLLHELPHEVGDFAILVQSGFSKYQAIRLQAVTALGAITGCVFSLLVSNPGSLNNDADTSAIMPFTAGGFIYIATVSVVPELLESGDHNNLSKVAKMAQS
Test: two-hybrid; split-ubiquitin yeast two-hybrid (DUALmembrane kit, Dualsystems Biotech) in yeast NMY51; ZIPT-7.1 on the bait plasmid pBT3-STE, other proteins on prey plasmids; growth on synthetic medium lacking Trp, Leu, His and Ade at three plating dilutions

binding	Substance
no binding	SPE-19 (C. elegans)
no binding	SPE-43 (C. elegans)
